# Test results as given in PubChem BioAssay AID1487 (National Center for Advancing Translational Sciences (NCATS), 2009).
# The other results are listed elsewhere or left out. The main result of the screen is listed elsewhere. These columns were measured beside it and carry no call. Compounds called inactive in the main read-out are mostly missing here. The note in brackets gives the kind of curve behind each potency; many fits are weak.
# Assay: qHTS Assay for Modulators of Lamin A Splicing
# Conditions: HeLa LMNA splicing GFP/RFP minigene ratio, 48 h
# Method in brief: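 S3 HeLa stable clones carrying a lamin A-EGFP splicing minigene plus DsRed2 were seeded at 600 cells/well in Opti-MEM with 2% FBS, pin-dosed and incubated 48 h at 37°C. Acumen cytometry (488 nm) gave the GFP/RFP total-intensity ratio.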
# [1] = measured here: GFP splicing reporter channel
# [2] = measured here: RFP viability control channel
SMILES,AC50 [1],AC50 [2]
O=C(Nc1ccc2c(c1)CCCN2C(=O)c1cccs1)c1ccccc1C(F)(F)F,"0.0224 µM [falling, full curve, poor fit]","10 µM [rising, partial curve]"
NS(=O)(=O)c1cccc(NC(=O)CSc2ncc(C(F)(F)F)cc2Cl)c1,,"31.6 µM [rising, single point]"
Oc1c(C(c2ccccc2)N2CCc3ccccc3C2)sc2ncnn12 (centres undefined),"15.8 µM [rising, partial curve, poor fit]","11.2 µM [rising, partial curve]"
COc1ccc(NC(=O)CSc2ccc(NC(C)=O)cc2)cc1S(=O)(=O)N1CCCCC1,,"35.5 µM [rising, single point]"
NC(=O)c1nsc(C(=O)N(c2cccc(F)c2)C(C(=O)NCC2CCCO2)c2cccs2)c1N (centres undefined),,"35.5 µM [falling, single point]"
CCOC(=O)c1cccc(NC(=O)CCNS(=O)(=O)c2ccc3c(c2)CCN3C(=O)CC)c1,"12.6 µM [rising, single point]","17.8 µM [rising, single point]"
Cc1nc([N+](=O)[O-])c(Br)n1CC(=O)c1ccc(Br)cc1,"35.5 µM [falling, single point]",
CCCCCCn1c(COc2ccccc2F)nnc1SCC(=O)c1c(N)n(C)c(=O)n(C)c1=O,,"6.31 µM [falling, partial curve, poor fit]"
Nc1nc2c(F)c(F)c(F)cc2s1,,"0.562 µM [falling, partial curve, poor fit]"
CC12CC(NC(=O)N1Cc1ccccc1)c1ccccc1O2 (centres undefined),"12.6 µM [rising, single point]","15.8 µM [rising, single point]"
C/C(=N\NC(=O)c1cc(-c2cccnc2)nc2ccccc12)c1ccc(O)cc1O,"4.47 µM [rising, full curve, poor fit]","7.08 µM [rising, partial curve]"
COC(=O)Oc1ccc(/C=N/NC(=O)CSCc2ccc(Cl)cc2)cc1OC,,"35.5 µM [rising, single point]"
CCOC(=O)c1c(-c2ccccc2)csc1NC(=O)CSc1nnnn1C,"35.5 µM [rising, single point]","35.5 µM [rising, single point]"
COc1cc(/C=N\Nc2nc3ccccc3o2)cc(OC)c1OC,,"11.2 µM [rising, partial curve]"
COCCCn1cnc2c(c1=O)c1nc3ccccc3nc1n2CCc1ccccc1,,"2.82 µM [rising, partial curve]"
C[C@H]1c2cccc(O)c2C(O)=C2C(=O)[C@]3(O)C(O)=C(C(N)=O)C(=O)C(N(C)C)[C@@H]3[C@@H](O)C21 (some centres undefined),"5.62 µM [falling, partial curve, poor fit]","0.631 µM [falling, partial curve, poor fit]"
COc1ccccc1N(C)S(=O)(=O)c1ccc(C(=O)OCC(=O)N2CCCCCC2)cc1,,"0.00447 µM [falling, full curve, poor fit]"
Cc1ccccc1OCC(=O)Nc1ccc2c(c1)n(C)c(=O)n2C,,"10 µM [rising, partial curve]"
COc1cc(Cl)c(NS(=O)(=O)c2cc3[nH]c(=O)c(=O)[nH]c3cc2C)c(OC)c1,,"0.02 µM [rising, full curve, poor fit]"
CC(C)NCC(O)COc1ccc(CC(N)=O)cc1 (centres undefined),,"0.00501 µM [falling, full curve, poor fit]"
CCn1ncc(C2=NOC(C(=O)NCc3ccc(Cl)cc3)C2)c1C (centres undefined),"3.98 µM [rising, full curve, poor fit]","14.1 µM [rising, single point]"
CO/N=C/c1ccc(N2CCN(C(=O)c3cccc(C(F)(F)F)c3)CC2)c([N+](=O)[O-])c1,,"8.91 µM [rising, partial curve]"
N#CC1=C(N)Oc2[nH]c(=S)[nH]c(=O)c2C12C(=O)Nc1ccccc12 (centres undefined),"1 µM [falling, partial curve]",
O=C(COC(=O)c1ccccc1C(=O)c1ccc(Cl)cc1)NCc1ccccc1,,"22.4 µM [rising, single point]"
CN(C(=O)COc1ccccc1C(=O)NCCOc1ccccc1)c1ccccc1,"3.55 µM [falling, partial curve]",
O=c1c(Cl)c(N/N=C/c2ccc(Cl)cc2)cnn1-c1ccccc1,,"12.6 µM [rising, partial curve]"
CCOc1ccc(S(=O)(=O)Nc2cccc(N(C)S(C)(=O)=O)c2)cc1,,"10 µM [rising, partial curve]"
CCCCCCSC1=C(C#N)C(c2ccc(O)cc2)CC(=O)N1 (centres undefined),,"35.5 µM [rising, single point]"

# Some of these compounds in order of length of the SMILES, largest number first:
SMILES,AC50 [1],AC50 [2]
NS(=O)(=O)c1cccc(NC(=O)CSc2ncc(C(F)(F)F)cc2Cl)c1,,"31.6 µM [rising, single point]"
COC(=O)Oc1ccc(/C=N/NC(=O)CSCc2ccc(Cl)cc2)cc1OC,,"35.5 µM [rising, single point]"
COCCCn1cnc2c(c1=O)c1nc3ccccc3nc1n2CCc1ccccc1,,"2.82 µM [rising, partial curve]"

# Later entries

SMILES,AC50 [1],AC50 [2]
OCCCCNCc1ccc(OCc2ccc(Cl)cc2)cc1,,"35.5 µM [rising, single point]"
Cc1ccc2sc(N3CCN(C(=O)C4COc5ccccc5O4)CC3)nc2c1C (centres undefined),"0.794 µM [rising, full curve, poor fit]",
Cc1c(C(=O)N(C)C)sc(NC(=O)c2cccc([N+](=O)[O-])c2)c1C#N,"12.6 µM [rising, single point]","12.6 µM [rising, single point]"
Cn1c(=O)n(CCN2CCOCC2)c(=O)c2c1nc1n2CCN1c1ccc(Oc2ccccc2)cc1,"10 µM [rising, single point]",
Cc1cc(C)c(NS(=O)(=O)c2ccc(NC(=O)c3cccs3)cc2)c(C)c1,,"15.8 µM [rising, partial curve, poor fit]"
COc1ccc(CCNC(=O)c2ccc(CS(=O)(=O)c3ccc(C)cc3)o2)cc1OC,,"17.8 µM [rising, single point]"
COC(=O)c1ccc(C(=O)OC)c(NC(=O)CSCc2ccc(Cl)cc2)c1,,"12.6 µM [rising, single point]"
Cc1ccc(S(=O)(=O)N2CCCSCC2)cc1,"0.0141 µM [rising, full curve, poor fit]","11.2 µM [rising, partial curve, poor fit]"
O=C(/C=C\c1ccco1)Oc1cccc2cccnc12,"25.1 µM [falling, single point]","3.98 µM [rising, single point]"
COc1ccccc1C1C=C(c2ccc(C)cc2)Nc2nnnn21 (centres undefined),,"35.5 µM [rising, single point]"
CCCCN(C)C(=O)Cc1c(OC)ccc2cc(Br)ccc12,"17.8 µM [rising, single point]","15.8 µM [rising, single point]"
COc1ccc(-n2c(C)c([N+](=O)[O-])c3ccc(O)c(CN(C)C)c32)cc1,"7.08 µM [falling, partial curve]","2 µM [falling, partial curve]"
CCOC(=O)[C@H]1O[C@@H]1C(=O)N[C@@H](CC(C)C)C(=O)NCCC(C)C,,"0.447 µM [rising, partial curve]"
N#Cc1c(Nc2ccccc2)sc(C(=O)c2ccc(F)cc2)c1N,"14.1 µM [rising, single point]","11.2 µM [rising, partial curve]"
COc1ccc(-c2csc(N(CCCN3CCOCC3)C(=O)c3ccco3)n2)cc1,"31.6 µM [rising, single point]","35.5 µM [rising, single point]"
COc1ccc(C(=O)C(CN2CCCC2)c2ccccc2)cc1 (centres undefined),,"5.62 µM [rising, single point]"
CCc1cc(-c2n[nH]c(=S)n2C(C)c2ccccc2)cs1 (centres undefined),,"11.2 µM [rising, single point]"
Cc1ccc2cc(CN(CC3CCCO3)C(=S)NCc3ccco3)c(=O)[nH]c2c1 (centres undefined),"0.794 µM [falling, full curve, poor fit]","1 µM [falling, full curve, poor fit]"
Cc1cccc(-n2ncc3c(N(CCO)CCO)ncnc32)c1,,"35.5 µM [rising, single point]"
COc1ccccc1CNC(=O)c1c2c(nc3ccccc13)C(=O)N(C1CCCCC1)C2,"0.01 µM [rising, full curve, poor fit]",
C=CCn1c(=O)[nH]c2cc(C(=O)N3CCN(c4cccc(Cl)c4)CC3)ccc2c1=O,"14.1 µM [rising, partial curve]","20 µM [rising, partial curve]"
O=C(Nc1nnc(SCc2cccc3ccccc23)s1)C1COc2ccccc2O1 (centres undefined),"11.2 µM [rising, single point]","12.6 µM [rising, partial curve]"
O=C(COc1ccc([N+](=O)[O-])cc1)N(Cc1ccccc1)Cc1ccccc1,,"25.1 µM [rising, single point]"
Cn1c(CNc2ccccc2O)nc2ccccc21,,"12.6 µM [rising, single point]"
CN(c1ccccc1)S(=O)(=O)c1cccc(NC(=O)CSc2nncs2)c1,,"15.8 µM [rising, partial curve]"
COc1cc(OC)cc(C(=O)N[C@H](C(=O)N2CCc3ccccc32)C(C)C)c1,,"28.2 µM [rising, partial curve]"
CC1=C(C)/C(=N\OS(=O)(=O)c2ccccc2)C=CC1=O,"22.4 µM [falling, single point]","14.1 µM [falling, partial curve]"

# Entries of single compounds from above.
# `C=CCn1c(=O)[nH]c2cc(C(=O)N3CCN(c4cccc(Cl)c4)CC3)ccc2c1=O` is listed as AC50 [1]: 14.1 µM [rising, partial curve]; AC50 [2]: 20 µM [rising, partial curve]
# `COc1ccc(CCNC(=O)c2ccc(CS(=O)(=O)c3ccc(C)cc3)o2)cc1OC` is listed as AC50 [2]: 17.8 µM [rising, single point]
